One substance from article PMC6685158 can be followed below.

Sequences of proteins named here, by UniProt entry; tags and fusion partners are left off. A change or cut given only in a name is not applied to a line headed by its entry.
UniProt P26718: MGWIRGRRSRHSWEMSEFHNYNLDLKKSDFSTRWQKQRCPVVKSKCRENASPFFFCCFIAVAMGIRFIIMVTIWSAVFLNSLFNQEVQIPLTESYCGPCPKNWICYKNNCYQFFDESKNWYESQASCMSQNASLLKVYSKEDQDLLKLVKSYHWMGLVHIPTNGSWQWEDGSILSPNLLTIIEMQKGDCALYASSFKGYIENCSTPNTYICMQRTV
UniProt Q29983: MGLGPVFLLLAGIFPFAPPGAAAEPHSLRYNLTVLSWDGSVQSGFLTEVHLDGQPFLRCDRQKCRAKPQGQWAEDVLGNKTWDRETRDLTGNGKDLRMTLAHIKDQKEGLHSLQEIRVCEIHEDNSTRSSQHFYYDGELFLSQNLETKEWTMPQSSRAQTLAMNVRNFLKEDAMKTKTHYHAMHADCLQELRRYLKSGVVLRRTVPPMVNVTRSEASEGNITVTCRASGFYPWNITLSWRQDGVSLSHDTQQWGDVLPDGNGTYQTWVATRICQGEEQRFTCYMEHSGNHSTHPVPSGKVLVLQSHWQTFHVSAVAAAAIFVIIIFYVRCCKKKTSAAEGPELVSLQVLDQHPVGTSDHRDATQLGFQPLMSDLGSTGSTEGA

No constants are given. Whether binding was seen depends on the method and setting. A result given as binding can be weak or reduced; the word gives no strength.

The target in this experiment is NKG2D receptor on primary human NK cells (human (endogenous in primary NK cells)) (UniProt P26718). Description: flow cytometry on cells; primary human NK cells pre-incubated with or without 5 uM MICA-ECD (4 °C, 4 h), then stained with anti-NKG2D PE (5C6 or 1D11) or anti-NKG2D mIgG1 (26F3) detected by anti-mouse IgG Fc PE; only the binder purified. On the technique in general: Flow cytometry measures light scatter and fluorescence of single cells or particles in a stream.

On to “MICA*002 extracellular domain (MICA-ECD) (from UniProt Q29983) (domain or fragment)”, for which the binding result is “binds”.
